Patent publication JP2007302676A
These are yes or no findings as the source states them, for the method shown. Some binding calls cover weakened binding; strength is not graded here.

Protein sequences, listed by entry. Tags and fused reporters are not part of them. Lines headed by an entry give the natural chain unless they say otherwise; changes in a name come on top.
UniProt P13612: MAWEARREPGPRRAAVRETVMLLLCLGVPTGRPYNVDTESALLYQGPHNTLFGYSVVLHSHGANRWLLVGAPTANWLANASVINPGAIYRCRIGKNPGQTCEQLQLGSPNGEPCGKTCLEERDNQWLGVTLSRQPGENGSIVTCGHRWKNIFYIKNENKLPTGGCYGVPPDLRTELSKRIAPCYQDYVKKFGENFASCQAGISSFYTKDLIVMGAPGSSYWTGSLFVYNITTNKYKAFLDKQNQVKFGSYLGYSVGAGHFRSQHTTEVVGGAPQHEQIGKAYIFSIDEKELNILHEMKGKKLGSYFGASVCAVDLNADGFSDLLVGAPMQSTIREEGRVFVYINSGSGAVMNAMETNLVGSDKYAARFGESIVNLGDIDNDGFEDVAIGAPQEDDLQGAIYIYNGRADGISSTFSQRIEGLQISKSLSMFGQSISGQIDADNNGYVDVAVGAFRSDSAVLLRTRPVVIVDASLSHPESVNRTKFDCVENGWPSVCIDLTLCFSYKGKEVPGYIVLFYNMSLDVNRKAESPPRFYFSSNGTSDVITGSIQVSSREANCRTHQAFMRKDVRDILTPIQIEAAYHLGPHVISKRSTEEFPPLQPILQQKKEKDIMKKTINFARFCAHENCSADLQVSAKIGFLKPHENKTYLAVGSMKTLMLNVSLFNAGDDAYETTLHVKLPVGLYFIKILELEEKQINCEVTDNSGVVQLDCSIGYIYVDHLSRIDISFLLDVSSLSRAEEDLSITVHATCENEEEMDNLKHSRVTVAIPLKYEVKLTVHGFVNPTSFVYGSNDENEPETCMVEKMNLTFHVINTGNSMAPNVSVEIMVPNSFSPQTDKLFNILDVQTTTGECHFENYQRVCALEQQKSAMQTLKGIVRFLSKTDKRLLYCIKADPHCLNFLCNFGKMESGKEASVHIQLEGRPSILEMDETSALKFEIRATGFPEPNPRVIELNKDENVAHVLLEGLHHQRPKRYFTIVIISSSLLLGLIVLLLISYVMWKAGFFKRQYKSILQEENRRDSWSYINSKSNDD
UniProt P26010: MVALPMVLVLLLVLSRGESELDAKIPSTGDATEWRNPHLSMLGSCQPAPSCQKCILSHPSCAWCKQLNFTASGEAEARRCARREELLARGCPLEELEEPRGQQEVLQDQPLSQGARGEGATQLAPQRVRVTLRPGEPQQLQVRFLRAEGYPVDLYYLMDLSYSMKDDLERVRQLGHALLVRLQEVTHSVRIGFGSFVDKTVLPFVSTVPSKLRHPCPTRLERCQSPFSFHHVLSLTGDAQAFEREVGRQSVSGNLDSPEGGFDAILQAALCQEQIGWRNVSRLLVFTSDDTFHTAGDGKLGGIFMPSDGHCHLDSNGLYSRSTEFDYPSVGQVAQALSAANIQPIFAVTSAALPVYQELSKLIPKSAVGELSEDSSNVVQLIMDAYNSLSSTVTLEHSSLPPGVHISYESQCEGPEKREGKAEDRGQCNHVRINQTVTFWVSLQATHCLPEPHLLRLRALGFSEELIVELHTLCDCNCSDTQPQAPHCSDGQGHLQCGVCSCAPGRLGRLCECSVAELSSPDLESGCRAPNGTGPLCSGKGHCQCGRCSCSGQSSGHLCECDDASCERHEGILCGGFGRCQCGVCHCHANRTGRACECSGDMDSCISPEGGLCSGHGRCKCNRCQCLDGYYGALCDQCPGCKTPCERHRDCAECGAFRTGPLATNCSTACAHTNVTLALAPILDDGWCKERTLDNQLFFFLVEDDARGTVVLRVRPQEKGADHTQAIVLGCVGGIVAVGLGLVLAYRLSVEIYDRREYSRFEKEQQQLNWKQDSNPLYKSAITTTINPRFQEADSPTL

Target: 全長ヒトインテグリンアルファ4ベータ7 (expressed in 293 cells, purified by Fib504 affinity chromatography) (human) (UniProt P13612+P26010)
Assay: phage-displayed Fab on immobilised human alpha4beta7

B1: Fib504K−RFグラフト (Fab) (Fab, V domains shown)
VH: EVQLVESGGGLVQPGGSLRLSCAASGFFITNNYWGWVRQAPGKGLEWVGYISYSGSTSYNPSLKSRFTISRDTSKNTFYLQMNSLRAEDTAVYYCAMTGSSGYFDFWGQGTLVTVSS
VL: DIQMTQSPSSLSASVGDRVTITCRASESVDTYLHWYQQKPGKAPKLLIKYASQSISGVPSRFSGSGSGTDFTLTISSLQPEDFATYYCQQGNSLPNTFGQGTKVEIKR
- binding: binds
